Our source for the neuronal differentiation score values is the supplement of paper PMC4635364.

Structures can show the parent of a compound that is named as a salt. The list shows a part of the results. Single values are uncertain here, since repeats match poorly.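 ReNCell VM, a human fetal ventral-midbrain neural progenitor line, was differentiated without mitogens. Blinded raters scored images stained for doublecortin (early neurons) or tyrosine hydroxylase (dopaminergic neurons) against untreated wells (0 = no change). Scores were averaged across repeats and both raters, and compounds averaging 2 or more were selected as hits for retesting.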

The test system of one experiment is ReNCell VM. In words: neuronal differentiation score (DCX+ cell fraction vs untreated, manual image score) (score (-3 to 3)); higher = more neuronal differentiation. To be noted: library: Natural; 2 uM; 2 weeks.
As to `CC1CC(C)C(=O)C(C(O)CC2CC(=O)NC(=O)C2)C1` (centres undefined), the neuronal differentiation score was inactive: -1.
The same measure, in the same setting: the result for `CC1=C2C(=CO[C@H](C)[C@H]2C)C(O)=C(C(=O)O)C1=O` [citrinin] reads inactive: 0.
With `CN1CC[C@]23CCCC[C@H]2[C@H]1Cc1ccc(O)cc13` [17-methylmorphinan-3-ol], the neuronal differentiation score is inactive: -1.
On the same count and under the same terms, next, `C1=CCC(c2cccnc2)NC1` (centres undefined) [1,2,3,6-Tetrahydro-[2,3']bipyridinyl]: inactive: 1.

Still in this experiment, the particulars now being: library: Phytochemical; 2 uM; 2 weeks.
Take `CC1=CC(=O)C2=C(C)C[C@H](O)[C@@H]3[C@H](OC(=O)[C@H]3C)[C@H]12` [Austricine hydrate]: the neuronal differentiation score was inactive: 0.
In the case of `COC1=CC=C2[C@H]3Cc4ccc(OC)c5c4[C@@]2(CCN3C)[C@H]1O5` [Thebaine HCl], the neuronal differentiation score is inactive: 0.
On the same count and under the same terms, next, `c1cncc(C2=NCCC2)c1` [Myosmine]: inactive: 0; `CC[C@H]1CN2CC[C@H]1C[C@H]2[C@H](O)c1ccnc2ccc(OC)cc12` [Hydroquinine hydrobromide hydrate]: inactive: 0.

The experiment is the same for the next values; noted with them: library: Prestwick; 2 uM; 2 weeks.
For `C#CCN(C)[C@H](C)Cc1ccccc1` [Selegiline hydrochloride], the neuronal differentiation score is inactive: 0.
Take `CCN(C)C(=O)Oc1cccc([C@H](C)N(C)C)c1` [Rivastigmine]: the neuronal differentiation score was inactive: 0.
Same read-out and setting: next, `C[N+]1([O-])[C@@H]2C[C@@H](OC(=O)[C@H](CO)c3ccccc3)C[C@H]1[C@@H]1O[C@@H]12` (some centres undefined) [Scopolamin-N-oxide hydrobromide]: inactive: 0; `CC(C)CC(N(C)C)C1(c2ccc(Cl)cc2)CCC1` (centres undefined) [Sibutramine HCl]: inactive: 0.
Still for that read-out and setting: next, `CC(=O)OC1CN2CCC1CC2` (centres undefined) [Aceclidine Hydrochloride]: inactive: 0.

The same experiment, now with this note: library: Spectrum; 2 uM; 2 weeks.
On to `COc1ccc(O)c(C(C)(C)C)c1.COc1ccc(O)cc1C(C)(C)C`, for which the neuronal differentiation score is inactive: 1.
The same measure, in the same setting: next, `CC(C)(C)NCC(O)c1cc(Cl)c(N)c(Cl)c1` (centres undefined): inactive: 0.
The same measure, in the same setting: the result for `COc1cc2c(cc1OC)[C@H](C)NCC2` reads inactive: 0; that for `CC1C=CC=CCCC=CC=CC=CC=CC(OC2OC(C)C(O)C(N)C2O)CC2OC(O)(CC(O)C(O)CCC(O)CC(O)CC(O)CC(=O)OC(C)C(C)C1O)CC(O)C2C(=O)O` (centres undefined), inactive: 0.
For the molecule `C=CCc1ccc(OC)cc1`, the neuronal differentiation score was inactive: 0.
Still for that read-out and setting: the result for `CC1(C)C(=O)C=C[C@@]2(C)C1=C(O)C(=O)[C@]1(C)[C@@H]2CC[C@@]2(C)[C@H](c3ccoc3)C[C@H]3O[C@]321` reads inactive: 0; that for `O=P1(NCCCl)OCCCN1CCCl` (centres undefined), inactive: 0; that for `c1ccc2c(c1)[nH]c1cnccc12`, inactive: 0.
The same measure, in the same setting: next, `CO[C@H]1[C@H](O)[C@H](O[C@H]2CC[C@@]3(C=O)[C@H](CC[C@@H]4[C@@H]3CC[C@]3(C)[C@@H](C5=CC(=O)OC5)CC[C@]43O)C2)O[C@@H](C)[C@@H]1O`: inactive: 0; `COC(=O)[C@@H]1C[C@H](OC(C)=O)C(=O)[C@H]2[C@@]1(C)CC[C@H]1C(=O)O[C@H](c3ccoc3)C[C@]21C`: inactive: 0.
On to `CC1=C2C(=CO[C@H](C)[C@H]2C)C(O)=C(C(=O)O)C1=O`, for which the neuronal differentiation score is inactive: 0.
